Our source for the cell number change and AC50 values is PubChem BioAssay AID2685 (National Center for Advancing Translational Sciences (NCATS), 2010).

As a reminder, the AC50 is the concentration giving half of the maximal activity seen. Read a low AC50 as greater potency.

This assay in a line: qHTS Assay for Lipid Storage Modulators in Drosophila S3 Cells.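 For cell number change: cells counted by Cell Tracker Red CMTPX staining in the red channel.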 To be noted: BODIPY lipid droplet fluorescence, 18-24 h; for cell number change: measured here: cell count max response, cells fed with added oleic acid. An outline of the steps:
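Laser-scanning cytometry quantifies lipid droplet accumulation (500–530 nm total intensity; droplet/cell object ratio) in oleic acid-fed (400 uM added) Drosophila S3 cells treated with a concentration series. 20 uM Triacsin C defined 100% inhibition.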
In general terms: qHTS replaces the single test concentration by a dilution series.

[1] abbreviates: measured here: lipid fluorescence (Fed channel) AC50, cells fed with added oleic acid.
[2] abbreviates: measured here: cell number channel AC50, cells fed with added oleic acid.

The structures appear in SMILES notation. The list shows a part of the results. The main result of the screen is listed elsewhere. These columns were measured beside it and carry no call. The list favours compounds with an active or inconclusive main result. The note in brackets gives the kind of curve behind each potency; many fits are weak.

In the case of `CC1(C)Cc2nc3sc4c(SCC(=O)NC(c5ccccc5)c5ccccc5)ncnc4c3cc2CO1`, the cell number change is -7.94%. For the same compound, the concentration at half-maximal activity (AC50) under setting [1] was 0.164 µM [falling, full curve, poor fit].

On to `O=c1c(-c2ccccc2Cl)coc2c(CN3CCCCC3)c(O)ccc12`, for which the AC50 under setting [1] is 0.58 µM [falling, single point].

As for `CCc1ccc(CNC(=O)c2ccc(OC3CCN(C(C)=O)CC3)c(OC)c2)nc1`, the cell number change worked out at 31.9%. Also, the AC50 under setting [2] was 0.092 µM [rising, full curve]. The AC50 under setting [1] is 29.1 µM [rising, single point].

For the compound `CC(=O)N1CCN(c2ccccc2NC(=O)c2cccc3c(Cl)cccc23)CC1`, the cell number change came to 34.5%. Moreover, the AC50 under setting [2] is 0.00461 µM [rising, full curve, poor fit].

In the case of `COc1ccccc1CN(C)C(=O)c1cccc(S(=O)(=O)N2CCN(Cc3ccccc3)CC2)c1`, the cell number change was determined as 72.7%. For the same compound, the AC50 under setting [2] is 8.2 µM [rising, partial curve].

For `Cc1[nH]n(-c2ccc(Cl)cc2)c(=O)c1C=Nc1ccc(S(=O)(=O)N2CCOCC2)cc1`, the cell number change is -29.5%. Further, under setting [2], the AC50 was 0.206 µM [falling, full curve]. For the same compound, the AC50 under setting [1] is 2.06 µM [falling, partial curve].

As to `CCC(C)Sc1cc(C)c(C#N)c2nc3ccccc3n12` (centres undefined), the cell number change came out at 83.3%. Moreover, the half-maximal activity concentration (AC50) under setting [2] is 6.51 µM [falling, single point].

For the compound `CC(C)c1ccc(NC(=O)CCCC(=O)NCCc2ccccc2)cc1`, the cell number change is -8.11%.

As for `O=C(COC(=O)c1cc([N+](=O)[O-])ccc1N1CCOCC1)c1ccc(Br)cc1`, the cell number change was -16.6%.

In the case of `Cc1cc(Nc2ccc(F)cc2)n2nc(C)nc2n1`, the cell number change amounted to 13.8%. Also, the AC50 under setting [1] was 6.51 µM [rising, single point].

As for `Nc1ccccc1C(=O)N/N=C1\C2CN3CCN(C2)CC1(c1ccccc1)C3`, the cell number change was -4.9%. In addition, the half-maximal activity concentration (AC50) under setting [1] was 29.1 µM [falling, partial curve].

As to `O=C(Nc1ccc([N+](=O)[O-])cn1)C1CC2CCC1C2` (centres undefined), the cell number change worked out at 14.9%. Besides, the concentration at half-maximal activity (AC50) under setting [1] is 8.2 µM [rising, partial curve, poor fit].

On to `O=C(Nc1ccccc1NS(=O)(=O)c1ccc(F)cc1)C1CCCC1`, for which the cell number change is -13.8%. Besides, the AC50 under setting [2] was 1.84 µM [rising, partial curve, poor fit]. Further, the AC50 under setting [1] was 0.651 µM [rising, full curve, poor fit].

With `COc1ccc(CCNC(=O)c2cc(-c3ccncc3)nc3ccc(S(=O)(=O)N4CCOCC4)cc23)cc1OC`, the cell number change was found to be 1.49%. Besides, the concentration at half-maximal activity (AC50) under setting [1] was 5.17 µM [rising, full curve, poor fit].

Turning to `COc1ccc([C@@H]2CC=C(C(=O)O)[C@H](c3ccc(F)cc3)N2S(=O)(=O)c2ccc(C)cc2)cc1OC`, the cell number change turned out to be 10.2%. Further, under setting [2], the AC50 is 0.0651 µM [rising, full curve, poor fit]. Moreover, the AC50 under setting [1] is 16.4 µM [rising, single point].

In the case of `CN1C(=O)C2CN(CCc3ccccc3)CNC2N(C)C1=O` (centres undefined), the cell number change was found to be 0.68%. Also, under setting [1], the AC50 is 0.259 µM [falling, full curve, poor fit].

On to `COc1ccccc1NC(=O)C(=O)NCCC1CCCCN1S(=O)(=O)c1ccccc1` (centres undefined), for which the cell number change was -27.6%.

Regarding `CCOC(=O)c1c(NC(=O)CN2CCN(C(=O)c3ccco3)CC2)sc2c1CCCC2`, the cell number change was -60.2%. For the same compound, the AC50 under setting [2] was 20.6 µM [falling, single point]. In addition, under setting [1], the concentration at half-maximal activity (AC50) is 23.1 µM [falling, single point].

Consider `CCOC(=O)c1c(NC(=O)CSc2nnnn2-c2ccc(OC)cc2)sc(C)c1C`, for which the AC50 runs as follows: under setting [2], 3.26 µM [rising, single point]; under setting [1], 5.17 µM [rising, single point].

Turning to `CC1CC(C)CN(C(=O)c2ccc3c(c2NCCO)C(=O)c2ccccc2C3=O)C1` (centres undefined), the cell number change is -27.2%. The AC50 under setting [2] is 3.66 µM [falling, full curve, poor fit]. Further, the AC50 under setting [1] was 3.66 µM [falling, full curve].

With `COc1cccc(CN2CCCC(C(=O)N3CCCCC3)C2)c1` (centres undefined), the cell number change was found to be 42.3%. Further, the half-maximal activity concentration (AC50) under setting [2] was 0.651 µM [rising, full curve]. For the same compound, under setting [1], the AC50 was 6.51 µM [rising, single point].

With `Cc1ccc(C(=O)N/N=C\c2ccc([N+](=O)[O-])o2)cn1`, the cell number change turned out to be 6.21%. Further, the AC50 under setting [1] is 16.4 µM [falling, single point].

Take `Cc1ccc(S(=O)(=O)N2CCN(Cc3ccccc3C(F)(F)F)CC2)cc1`: the cell number change was determined as 15.5%.

In the case of `CCCn1cc(S(=O)(=O)c2ccc(F)cc2)c(=O)c2cc(OCC)ccc21`, the cell number change was -42.2%. Besides, the AC50 under setting [2] was 1.64 µM [falling, partial curve]. Also, the AC50 under setting [1] is 29.1 µM [falling, single point].

Regarding `CCOc1ccc(N2C(=O)/C(=C\c3ccccc3OC)S(=O)(=O)C2c2cccc([N+](=O)[O-])c2)cc1` (centres undefined), the cell number change is 18.5%. Also, the half-maximal activity concentration (AC50) under setting [1] is 0.82 µM [rising, single point].

Take `Cc1cc(C(=O)Nc2ccccc2Cl)c2ccccc2n1`: the cell number change worked out at 10.5%. Also, under setting [1], the concentration at half-maximal activity (AC50) is 20.6 µM [rising, single point].

On to `COc1cc(/C=N/NC(=O)c2cc3c(ccc4ccccc43)o2)cc(OC)c1O`, for which the cell number change is -16.4%. Further, under setting [1], the half-maximal activity concentration (AC50) is 20.6 µM [falling, single point].

With `CCCNCc1nnc(-c2ccccc2Cl)o1`, the cell number change is -9%. Further, the concentration at half-maximal activity (AC50) under setting [1] was 13 µM [rising, single point].

Turning to `COCc1c(C(=O)N/N=C/C2CC=CCC2)nnn1-c1nonc1N` (centres undefined), the cell number change stood at 16.7%. Besides, the half-maximal activity concentration (AC50) under setting [1] was 18.4 µM [rising, single point].

Consider `COc1ccc(CNS(=O)(=O)c2ccc(-n3cnnn3)c(C)c2)cc1`, for which, under setting [1], the concentration at half-maximal activity (AC50) is 29.1 µM [falling, single point].

Consider `CC1CCCC/C1=N\NC(=S)NCCc1ccccc1` (centres undefined), for which the cell number change amounted to 1.77%. For the same compound, the concentration at half-maximal activity (AC50) under setting [1] is 6.51 µM [rising, single point].

On to `CC(C)(CCl)C(=O)Nc1ccc(Sc2ccc(F)cc2)cc1`, for which the cell number change is -60%. Besides, the AC50 under setting [2] is 14.6 µM [falling, partial curve, poor fit]. Further, under setting [1], the AC50 is 16.4 µM [falling, partial curve].

In the case of `S=C(NC1CCCCC1)N1CCN(C/C=C/c2ccccc2)CC1`, the cell number change is -3.88%. Further, the concentration at half-maximal activity (AC50) under setting [2] is 0.103 µM [falling, full curve, poor fit]. Besides, under setting [1], the AC50 is 14.6 µM [falling, partial curve].

As to `CCCC(=O)Nc1nnc(/C=C/c2ccccc2)s1`, the cell number change was -41.2%. Further, under setting [2], the AC50 was 0.13 µM [falling, full curve, poor fit].

For the compound `CCOC(=O)c1cc2sccc2n1Cc1ccccc1`, the cell number change is -20%. Further, the AC50 under setting [1] was 0.082 µM [rising, full curve, poor fit].
